# From PubChem BioAssay AID493014 (National Center for Advancing Translational Sciences (NCATS), 2011)
# The other results are listed elsewhere or left out. Further columns of the screen follow, without active or inactive calls. Compounds called inactive in the main read-out are mostly missing here. Potencies come from curve fits of mixed quality, noted in brackets.
# Assay: qHTS Assay to Find Inhibitors of Chronic Active B-Cell Receptor Signaling
# Conditions: ABC-DLBCL IkBa-CBG/CBR reporter, luminescence ratio (green luciferase fused to IkBa over red control in TMD8 lymphoma cells), 4 h; measured here: CBR red luminescence, cell number
# Outline: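 Compounds up to 46 uM were incubated four hours with TMD8 cells whose green CBG68 luciferase is fused to IkappaBalpha; red CBR luminescence normalised the signal, and concentration-effect curves were fitted to fusion, red and ratio data.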
row,SMILES,AC50
1,CCC(CC)C(=O)Nc1c2cnn(-c3ccccc3)c2nc(=O)n1-c1ccccc1,"25.1 µM [falling, single point]"
2,COC(=O)CC/C(O)=C1/C(=N)CC(C)(C)CC1=O,"3.26 µM [rising, partial curve, poor fit]"
3,CCOC(=O)C1CCN(Cc2nc3ccc([N+](=O)[O-])cc3c(=O)n2-c2ccc(OC)cc2OC)CC1,"14.1 µM [falling, partial curve, poor fit]"
4,CCCCc1ccc(NS(=O)(=O)c2cccc(C(=O)N3CCCN(C)CC3)c2)cc1,"29.1 µM [falling, single point]"
5,COc1ccc(NC(=O)Nc2nnc(-c3ccccc3SCc3ccccc3)s2)cc1,"0.00461 µM [falling, full curve, poor fit]"
6,CCc1cccc(C)c1NC(=S)N(CCCN1CCN(C)CC1)Cc1cccs1,"4.47 µM [falling, partial curve, poor fit]"
7,COc1ccc(/C=C2\CCc3ccccc3C2=O)cc1OC,"35.5 µM [falling, single point]"
8,CCOc1ccccc1NC(=O)C(CC(C)C)NC(=O)C1CCCCC1 (configuration not stated),"23.1 µM [rising, single point]"
9,Nc1c(-c2ccccc2)c(CSc2nc3ccccc3[nH]2)nn1-c1ccc(Cl)cc1,"3.26 µM [rising, partial curve, poor fit]"
10,O=c1c2c(nc3nc(Cc4ccccc4)[nH]n13)CCC2,"9.2 µM [falling, partial curve, poor fit]"
11,Cc1ccc(C(=O)Nc2cccc3cccnc23)cc1C,"4.47 µM [rising, full curve, poor fit]"
12,OC1c2cc(Br)ccc2N=C2CCCN21 (configuration not stated),"22.4 µM [falling, partial curve, poor fit]"
13,CCCn1c(=O)c(C(=O)Nc2ccccc2C(=O)OC)c(O)c2ccccc21,"2.51 µM [rising, full curve, poor fit]"
14,C=CCN(c1ccccc1OC)S(=O)(=O)c1cccc(C(=O)NCc2cccs2)c1,"10.3 µM [rising, partial curve]"
15,CC(=NCc1ccncc1)C1=C(O)c2ccccc2C1=O,"2.06 µM [rising, single point]"
16,c1ccc(CCNc2nc(-c3ccncc3)cs2)cc1,"14.1 µM [falling, single point]"

# For convenience, part of the list above.
row,SMILES,AC50
9,Nc1c(-c2ccccc2)c(CSc2nc3ccccc3[nH]2)nn1-c1ccc(Cl)cc1,"3.26 µM [rising, partial curve, poor fit]"
10,O=c1c2c(nc3nc(Cc4ccccc4)[nH]n13)CCC2,"9.2 µM [falling, partial curve, poor fit]"

# Next compounds

row,SMILES,AC50
1,COc1ccc2c(c1)C(=NNc1ccc(C(=O)O)cc1)c1cc(OC)ccc1-2,"11.2 µM [falling, partial curve, poor fit]"
2,CCN(CC)CCCNc1nc(-n2nc(C)cc2C)nc2sc3c(c12)CC(C)(C)OC3,"5.01 µM [falling, full curve, poor fit]"
3,O=C(CN1CCN(c2ccccc2)CC1)Nc1c(C(=O)C2CC2)oc2ccccc12,"1.3 µM [rising, full curve]"
4,COc1cccc(NC(=O)CN(C)C(=O)c2ccc(-c3ccccc3Cl)o2)c1,"35.5 µM [falling, single point]"
5,Cc1cccc2sc(N(CCCN(C)C)C(=O)c3ccc(C(=O)c4ccccc4)cc3)nc12,"7.94 µM [falling, partial curve, poor fit]"
6,Cc1cc(C)c(/C=N/NC(=O)c2nnn(-c3nonc3N)c2CN2CCC(C)CC2)c(C)c1,"4.47 µM [rising, full curve, poor fit]"
7,C=CCc1ccc(OCc2ccc(C(=O)Nc3ccc(NC(C)=O)cc3)o2)c(OC)c1,"1.41 µM [falling, full curve, poor fit]"
8,CCCC1(c2ccccc2)NC(=O)N(CC(=O)c2[nH]c(C)c(C(=O)OCC)c2C)C1=O (configuration not stated),"7.94 µM [falling, partial curve, poor fit]"
9,Cc1cnc(NC(=O)CC2CCCC2)s1,"35.5 µM [falling, partial curve, poor fit]"
10,CC(=O)N/C(=N\c1nc(C)cc(C)n1)Nc1ccccc1Cl,"2.51 µM [rising, full curve, poor fit]"
11,CCCOc1ccc(C(=O)NNC(=S)NC(=O)c2cccs2)cc1,"31.6 µM [rising, single point]"
12,Cc1ccc(Nc2cc(C)c3c(O)cccc3n2)cc1C,"7.08 µM [rising, full curve, poor fit]"
13,CN=Cc1nc(-c2ccccc2)oc1O,"6.51 µM [rising, single point]"
14,COc1ccccc1NS(=O)(=O)c1ccc(C(=O)N2CCCC(C(F)(F)F)C2)cc1 (configuration not stated),"0.146 µM [falling, full curve, poor fit]"
15,CCOC(=O)C(C)/C(C)=N/NC(=O)c1cc2ccccc2cc1O (configuration not stated),"18.4 µM [falling, single point]"
16,O=C(CCCCCNC(=O)c1ccccc1)N=Nc1c(O)[nH]c2c(Br)cc(Br)cc12,"0.891 µM [falling, partial curve, poor fit]"
